# Data as given in paper PMC5366859.
# T1: A. thaliana TIMING OF CAB EXPRESSION1 (AtTOC1), yeast two-hybrid bait (A. thaliana) (UniProt Q9LKL2)
# T1 sequence: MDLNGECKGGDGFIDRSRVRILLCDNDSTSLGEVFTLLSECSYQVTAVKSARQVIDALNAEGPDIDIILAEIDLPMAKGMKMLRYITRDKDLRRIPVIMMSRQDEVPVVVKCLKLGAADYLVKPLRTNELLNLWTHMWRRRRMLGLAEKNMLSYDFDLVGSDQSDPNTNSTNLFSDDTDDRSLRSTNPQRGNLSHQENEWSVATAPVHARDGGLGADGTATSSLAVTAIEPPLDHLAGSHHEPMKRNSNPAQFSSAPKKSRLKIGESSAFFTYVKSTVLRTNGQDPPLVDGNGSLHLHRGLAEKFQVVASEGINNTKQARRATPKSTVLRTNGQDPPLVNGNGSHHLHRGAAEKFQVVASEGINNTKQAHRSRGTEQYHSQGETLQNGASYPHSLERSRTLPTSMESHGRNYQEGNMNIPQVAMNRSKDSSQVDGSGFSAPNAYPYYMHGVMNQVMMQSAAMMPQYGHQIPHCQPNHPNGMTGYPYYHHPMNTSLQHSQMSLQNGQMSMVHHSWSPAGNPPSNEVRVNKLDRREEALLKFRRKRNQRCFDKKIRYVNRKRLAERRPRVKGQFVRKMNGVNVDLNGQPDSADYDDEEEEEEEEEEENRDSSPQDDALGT
# B1: A. thaliana HISTONE …1 (AtHD1), yeast two-hybrid prey (protein, UniProt O22446 1-501)
# chain: MDTGGNSLASGPDGVKRKVCYFYDPEVGNYYYGQGHPMKPHRIRMTHALLAHYGLLQHMQVLKPFPARDRDLCRFHADDYVSFLRSITPETQQDQIRQLKRFNVGEDCPVFDGLYSFCQTYAGGSVGGSVKLNHGLCDIAINWAGGLHHAKKCEASGFCYVNDIVLAILELLKQHERVLYVDIDIHHGDGVEEAFYATDRVMTVSFHKFGDYFPGTGHIQDIGYGSGKYYSLNVPLDDGIDDESYHLLFKPIMGKVMEIFRPGAVVLQCGADSLSGDRLGCFNLSIKGHAECVKFMRSFNVPLLLLGGGGYTIRNVARCWCYETGVALGVEVEDKMPEHEYYEYFGPDYTLHVAPSNMENKNSRQMLEEIRNDLLHNLSKLQHAPSVPFQERPPDTETPEVDEDQEDGDKRWDPDSDMDVDDDRKPIPSRVKREAVEPDTKDKDGLKGIMERGKGCEVEVDESGSTKVTGVNPVGVEEASVKMEEEGTNKGGAEQAFPPKT
# B2: AtHD1:CGFP (protein, UniProt O22446 1-501)
# chain: B1 chain
# How the values were obtained:
# [1] = biological target: T1, A. thaliana TIMING OF CAB EXPRESSION1 (AtTOC1), yeast two-hybrid bait (A. thaliana); experiment: two-hybrid; yeast; AtTOC1 or AaTOC1 as bait (pGBKT7-BD), AtCHE or AaCHE as prey (pGADT7-AD); quadruple dropout medium with X-α-gal (QDO/X) and quantitative α-galactosidase (PNG) assay relative to p53-T
# [2] = biological target: A. arenosa CCA1 HIKING EXPEDITION (AaCHE), yeast two-hybrid bait (Arabidopsis arenosa); experiment: two-hybrid; yeast; AtCHE or AaCHE as bait (pGBKT7-BD, Y2H gold), AtHD1 or AaHD1 as prey (pGADT7-AD, Y187), mated; limited growth in the triple dropout media
# [3] = biological target: NGFP:AaCHE (Arabidopsis arenosa); experiment: split reporter; split GFP complementation in E. coli Rossetta2 (DE3): NGFP:CHE (T7 promoter, IPTG) co-expressed with HD1:CGFP (PBAD promoter, arabinose); GFP fluorescence microscopy and flow cytometry (FACSCalibur, ~10,000 events), 20 °C for 2 days
molecule,measurement,setting,value
"A. arenosa CCA1 HIKING EXPEDITION (AaCHE), yeast two-hybrid prey (Arabidopsis arenosa)",binding,[1],binds
B1,binding,[2],binds weakly
B2,binding,[3],binds

# Results are given in words; binding and its absence hold for the method and conditions named. Binding can be weak; no strength is given. For part of these data: Where a sequence is shown, tags or fusion partners need not be part of it. For part of these data: Binding seen in cells or lysates may run through a third protein.
